# Measured values reported in PMC5886308.
# Chains of the proteins cited; added tags and fusions are not shown. Residues count along the entry.
# UniProt P62813, residues 28-455: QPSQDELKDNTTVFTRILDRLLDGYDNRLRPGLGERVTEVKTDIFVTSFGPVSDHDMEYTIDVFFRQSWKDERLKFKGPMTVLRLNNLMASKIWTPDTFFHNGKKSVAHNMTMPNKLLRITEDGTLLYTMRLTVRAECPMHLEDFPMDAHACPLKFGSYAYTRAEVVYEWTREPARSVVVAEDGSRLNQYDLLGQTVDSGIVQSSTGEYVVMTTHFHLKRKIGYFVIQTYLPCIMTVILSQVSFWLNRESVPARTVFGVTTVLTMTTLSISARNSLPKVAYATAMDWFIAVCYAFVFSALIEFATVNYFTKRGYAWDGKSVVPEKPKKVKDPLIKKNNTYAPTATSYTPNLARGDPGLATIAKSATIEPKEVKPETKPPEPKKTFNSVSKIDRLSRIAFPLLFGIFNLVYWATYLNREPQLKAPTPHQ
# Results are given in words; binding and its absence hold for the method and conditions named. In cells and extracts the contact can be indirect. Some results given as binding are weak or reduced against the parent protein; the word gives no strength.
# B1: truncated PCDH19 (PCDH19Δ879) (domain or fragment, UniProt Q8TAB3 22-879)
# chain: LINLKYSVEEEQRAGTVIANVAKDAREAGFALDPRQASAFRVVSNSAPHLVDINPSSGLLVTKQKIDRDLLCRQSPKCIISLEVMSSSMEICVIKVEIKDLNDNAPSFPAAQIELEISEAASPGTRIPLDSAYDPDSGSFGVQTYELTPNELFGLEIKTRGDGSRFAELVVEKSLDRETQSHYSFRITALDGGDPPRLGTVGLSIKVTDSNDNNPVFSESTYAVSVPENSPPNTPVIRLNASDPDEGTNGQVVYSFYGYVNDRTRELFQIDPHSGLVTVTGALDYEEGHVYELDVQAKDLGPNSIPAHCKVTVSVLDTNDNPPVINLLSVNSELVEVSESAPPGYVIALVRVSDRDSGLNGRVQCRLLGNVPFRLQEYESFSTILVDGRLDREQHDQYNLTIQARDGGVPMLQSAKSFTVLITDENDNHPHFSKPYYQVIVQENNTPGAYLLSVSARDPDLGLNGSVSYQIVPSQVRDMPVFTYVSINPNSGDIYALRSFNHEQTKAFEFKVLAKDGGLPSLQSNATVRVIILDVNDNTPVITAPPLINGTAEVYIPRNSGIGYLVTVVKAEDYDEGENGRVTYDMTEGDRGFFEIDQVNGEVRTTRTFGESSKSSYELIVVAHDHGKTSLSASALVLIYLSPALDAQESMGSVNLSLIFIIALGSIAGILFVTMIFVAIKCKRDNKEIRTYNCSNCLTITCLLGCFIKGQNSKCLHCISVSPISEEQDKKTEEKVSLRGKRIAEYSYGHQKKSSKKKKISKNDIRLVPRDVEETDKMNVVSCSSLTSSLNYFDYHQQTLPLGCRRSESTFLNVENQNTRNTSANHIYHHSFNSQGPQQPDLIINGVPLPETENYSFD
# B2: delta protocadherin PCDH9 (protein, UniProt Q9HC56 24-1237)
# chain: QELIYTIREELPENVPIGNIPKDLNISHINAATGTSASLVYRLVSKAGDAPLVKVSSSTGEIFTTSNRIDREKLCAGASYAEENECFFELEVVILPNDFFRLIKIKIIVKDTNDNAPMFPSPVINISIPENTLINSRFPIPSATDPDTGFNGVQHYELLNGQSVFGLDIVETPEGEKWPQLIVQQNLDREQKDTYVMKIKVEDGGTPQKSSTAILQVTVSDVNDNRPVFKEGQVEVHIPENAPVGTSVIQLHATDADIGSNAEIRYIFGAQVAPATKRLFALNNTTGLITVQRSLDREETAIHKVTVLASDGSSTPARATVTINVTDVNDNPPNIDLRYIISPINGTVYLSEKDPVNTKIALITVSDKDTDVNGKVICFIEREVPFHLKAVYDNQYLLETSSLLDYEGTKEFSFKIVASDSGKPSLNQTALVRVKLEDENDNPPIFNQPVIELSVSENNRRGLYLTTISATDEDSGKNADIVYQLGPNASFFDLDRKTGVLTASRVFDREEQERFIFTVTARDNGTPPLQSQAAVIVTVLDENDNSPKFTHNHFQFFVSENLPKYSTVGVITVTDADAGENKAVTLSILNDNDNFVLDPYSGVIKSNVSFDREQQSSYTFDVKATDGGQPPRSSTAKVTINVMDVNDNSPVVISPPSNTSFKLVPLSAIPGSVVAEVFAVDVDTGMNAELKYTIVSGNNKGLFRIDPVTGNITLEEKPAPTDVGLHRLVVNISDLGYPKSLHTLVLVFLYVNDTAGNASYIYDLIRRTMETPLDRNIGDSSQPYQNEDYLTIMIAIIAGAMVVIVVIFVTVLVRCRHASRFKAAQRSKQGAEWMSPNQENKQNKKKKRKKRKSPKSSLLNFVTIEESKPDDAVHEPINGTISLPAELEEQSIGRFDWGPAPPTTFKPNSPDLAKHYKSASPQPAFHLKPDTPVSVKKHHVIQELPLDNTFVGGCDTLSKRSSTSSDHFSASECSSQGGFKTKGPLHTRQCNSHSKSDNIPVTPQKCPSSTGFHIQENEESHYESQRRVTFHLPDGSQESCSDSGLGDHEPVGSGTLISHPLPLVQPQDEFYDQASPDKRTEADGNSDPNSDGPLGPRGLAEATEMCTQECLVLGHSDNCWMPPGLGPYQHPKSPLSTFAPQKEWVKKDKLVNGHTLTRAWKEDSNRNQFNDRKQYGSNEGHFNNGSHMTDIPLANLKSYKQAGGATESPKEHQL
# Columns and labels:
# [1] = biological target: GABAAR myc-alpha 1 subunit (UniProt P62813); experiment: co-IP; HEK293T cells co-transfected; soluble extracts in modified RIPA buffer incubated overnight at 4°C with anti-myc (10 μg/ml), protein A agarose beads; non-immune IgG as control
# [2] = biological target: GABAAR myc-alpha 1 subunit in combination with beta 2 and gamma 2 subunits (UniProt P62813); experiment: as above
Binder,binding [1],binding [2]
B1,binds,binds
B2,no binding,no binding
